Article PMC7804203, “Targeting adaptor protein SLP76 of RAGE as a therapeutic approach for lethal sepsis” (Nature Communications, 2021)
These are yes or no findings as the source states them, for the method shown. Binding can be weak; no strength is given. Sequences can lack the tags named with a protein. For some assays here: Binding seen in cells or lysates may run through a third protein.

By UniProt entry, the sequences of proteins in these tests, tags left out. Where a name states a change or a piece, a line headed by the entry shows the natural chain unless it says otherwise.
UniProt Q15109: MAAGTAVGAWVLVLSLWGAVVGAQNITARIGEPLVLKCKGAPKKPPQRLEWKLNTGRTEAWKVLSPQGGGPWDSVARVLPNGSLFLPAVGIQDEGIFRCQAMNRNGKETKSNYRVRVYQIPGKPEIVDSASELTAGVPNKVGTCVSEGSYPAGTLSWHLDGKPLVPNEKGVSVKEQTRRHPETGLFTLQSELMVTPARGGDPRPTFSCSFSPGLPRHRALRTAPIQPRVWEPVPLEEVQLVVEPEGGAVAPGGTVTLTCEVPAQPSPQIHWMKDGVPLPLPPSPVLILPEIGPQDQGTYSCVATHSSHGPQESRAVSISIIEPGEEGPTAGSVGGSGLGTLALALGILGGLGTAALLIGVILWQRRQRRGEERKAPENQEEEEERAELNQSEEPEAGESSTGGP

Tests used:
His-tagged SLP76 = biological target: T1, His-tagged SLP76 (UniProt Q13094); assay: pull-down; His-SLP76 incubated with GST-RAGE(CT) or GST and pulled down with Ni2+-NTA beads; SDS-PAGE with Coomassie staining; both purified
T1 sequence: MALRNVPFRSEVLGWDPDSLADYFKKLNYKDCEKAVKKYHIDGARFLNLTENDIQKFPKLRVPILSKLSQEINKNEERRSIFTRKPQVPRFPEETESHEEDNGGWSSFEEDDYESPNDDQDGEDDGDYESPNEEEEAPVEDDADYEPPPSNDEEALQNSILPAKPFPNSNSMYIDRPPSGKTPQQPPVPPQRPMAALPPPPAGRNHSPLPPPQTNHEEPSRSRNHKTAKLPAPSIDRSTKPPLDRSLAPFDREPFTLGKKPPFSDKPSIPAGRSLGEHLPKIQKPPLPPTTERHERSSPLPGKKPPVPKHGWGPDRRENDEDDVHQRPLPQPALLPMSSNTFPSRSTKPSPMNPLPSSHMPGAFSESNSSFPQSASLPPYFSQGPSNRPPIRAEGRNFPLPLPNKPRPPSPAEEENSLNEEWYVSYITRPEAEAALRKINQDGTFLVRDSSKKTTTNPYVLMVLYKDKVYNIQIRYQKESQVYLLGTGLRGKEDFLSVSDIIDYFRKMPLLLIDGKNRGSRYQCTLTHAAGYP

[1] = biological target: HA-tagged RAGE mutant with D-domain-like docking site (D) deletion (UniProt Q15109); assay: co-IP; HEK293 cotransfected with HA-RAGE (or mutants) and Flag-SLP76 (or mutants); treated with AGEs at different doses and times (100 μg/ml, 15 min in the mapping) or untreated; 500 µg lysate with anti-HA affinity gel overnight at 4 °C; blot for Flag

Row | Molecule | binding (His-tagged SLP76) | binding [1]
1 | GST-tagged cytosolic tail of RAGE (domain or fragment) | binds | –
2 | Flag-tagged full-length SLP76 (protein, UniProt Q13094 1-533) MALRNVPFRSEVLGWDPDSLADYFKKLNYKDCEKAVKKYHIDGARFLNLTENDIQKFPKLRVPILSKLSQEINKNEERRSIFTRKPQVPRFPEETESHEEDNGGWSSFEEDDYESPNDDQDGEDDGDYESPNEEEEAPVEDDADYEPPPSNDEEALQNSILPAKPFPNSNSMYIDRPPSGKTPQQPPVPPQRPMAALPPPPAGRNHSPLPPPQTNHEEPSRSRNHKTAKLPAPSIDRSTKPPLDRSLAPFDREPFTLGKKPPFSDKPSIPAGRSLGEHLPKIQKPPLPPTTERHERSSPLPGKKPPVPKHGWGPDRRENDEDDVHQRPLPQPALLPMSSNTFPSRSTKPSPMNPLPSSHMPGAFSESNSSFPQSASLPPYFSQGPSNRPPIRAEGRNFPLPLPNKPRPPSPAEEENSLNEEWYVSYITRPEAEAALRKINQDGTFLVRDSSKKTTTNPYVLMVLYKDKVYNIQIRYQKESQVYLLGTGLRGKEDFLSVSDIIDYFRKMPLLLIDGKNRGSRYQCTLTHAAGYP | – | binds
